Test results from article doi:10.1101/455378.
These are yes or no findings as the source states them, for the method shown. Some entries that bind do so weakly or less than the wild type.

Chains of the proteins cited; added tags and fusions are not shown. Lines headed by an entry give the natural chain unless they say otherwise; changes in a name come on top.
UniProt Q4P8R9: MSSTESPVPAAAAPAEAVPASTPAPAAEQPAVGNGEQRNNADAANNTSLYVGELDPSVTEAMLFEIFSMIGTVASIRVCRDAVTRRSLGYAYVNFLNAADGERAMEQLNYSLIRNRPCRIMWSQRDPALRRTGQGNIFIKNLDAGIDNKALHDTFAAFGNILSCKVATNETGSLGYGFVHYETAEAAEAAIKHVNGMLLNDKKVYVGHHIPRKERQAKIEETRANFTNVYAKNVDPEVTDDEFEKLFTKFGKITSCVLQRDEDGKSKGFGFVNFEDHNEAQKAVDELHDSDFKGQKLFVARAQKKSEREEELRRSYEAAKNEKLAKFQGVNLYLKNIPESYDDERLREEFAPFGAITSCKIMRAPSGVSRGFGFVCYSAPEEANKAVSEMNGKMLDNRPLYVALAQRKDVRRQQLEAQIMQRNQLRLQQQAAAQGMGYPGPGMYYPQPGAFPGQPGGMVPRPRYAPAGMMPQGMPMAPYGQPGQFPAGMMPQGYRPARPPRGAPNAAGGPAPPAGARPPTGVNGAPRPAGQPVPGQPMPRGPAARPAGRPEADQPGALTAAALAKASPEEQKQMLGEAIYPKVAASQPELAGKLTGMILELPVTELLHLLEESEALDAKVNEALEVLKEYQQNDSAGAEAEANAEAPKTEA
UniProt A0A0D1DRJ3: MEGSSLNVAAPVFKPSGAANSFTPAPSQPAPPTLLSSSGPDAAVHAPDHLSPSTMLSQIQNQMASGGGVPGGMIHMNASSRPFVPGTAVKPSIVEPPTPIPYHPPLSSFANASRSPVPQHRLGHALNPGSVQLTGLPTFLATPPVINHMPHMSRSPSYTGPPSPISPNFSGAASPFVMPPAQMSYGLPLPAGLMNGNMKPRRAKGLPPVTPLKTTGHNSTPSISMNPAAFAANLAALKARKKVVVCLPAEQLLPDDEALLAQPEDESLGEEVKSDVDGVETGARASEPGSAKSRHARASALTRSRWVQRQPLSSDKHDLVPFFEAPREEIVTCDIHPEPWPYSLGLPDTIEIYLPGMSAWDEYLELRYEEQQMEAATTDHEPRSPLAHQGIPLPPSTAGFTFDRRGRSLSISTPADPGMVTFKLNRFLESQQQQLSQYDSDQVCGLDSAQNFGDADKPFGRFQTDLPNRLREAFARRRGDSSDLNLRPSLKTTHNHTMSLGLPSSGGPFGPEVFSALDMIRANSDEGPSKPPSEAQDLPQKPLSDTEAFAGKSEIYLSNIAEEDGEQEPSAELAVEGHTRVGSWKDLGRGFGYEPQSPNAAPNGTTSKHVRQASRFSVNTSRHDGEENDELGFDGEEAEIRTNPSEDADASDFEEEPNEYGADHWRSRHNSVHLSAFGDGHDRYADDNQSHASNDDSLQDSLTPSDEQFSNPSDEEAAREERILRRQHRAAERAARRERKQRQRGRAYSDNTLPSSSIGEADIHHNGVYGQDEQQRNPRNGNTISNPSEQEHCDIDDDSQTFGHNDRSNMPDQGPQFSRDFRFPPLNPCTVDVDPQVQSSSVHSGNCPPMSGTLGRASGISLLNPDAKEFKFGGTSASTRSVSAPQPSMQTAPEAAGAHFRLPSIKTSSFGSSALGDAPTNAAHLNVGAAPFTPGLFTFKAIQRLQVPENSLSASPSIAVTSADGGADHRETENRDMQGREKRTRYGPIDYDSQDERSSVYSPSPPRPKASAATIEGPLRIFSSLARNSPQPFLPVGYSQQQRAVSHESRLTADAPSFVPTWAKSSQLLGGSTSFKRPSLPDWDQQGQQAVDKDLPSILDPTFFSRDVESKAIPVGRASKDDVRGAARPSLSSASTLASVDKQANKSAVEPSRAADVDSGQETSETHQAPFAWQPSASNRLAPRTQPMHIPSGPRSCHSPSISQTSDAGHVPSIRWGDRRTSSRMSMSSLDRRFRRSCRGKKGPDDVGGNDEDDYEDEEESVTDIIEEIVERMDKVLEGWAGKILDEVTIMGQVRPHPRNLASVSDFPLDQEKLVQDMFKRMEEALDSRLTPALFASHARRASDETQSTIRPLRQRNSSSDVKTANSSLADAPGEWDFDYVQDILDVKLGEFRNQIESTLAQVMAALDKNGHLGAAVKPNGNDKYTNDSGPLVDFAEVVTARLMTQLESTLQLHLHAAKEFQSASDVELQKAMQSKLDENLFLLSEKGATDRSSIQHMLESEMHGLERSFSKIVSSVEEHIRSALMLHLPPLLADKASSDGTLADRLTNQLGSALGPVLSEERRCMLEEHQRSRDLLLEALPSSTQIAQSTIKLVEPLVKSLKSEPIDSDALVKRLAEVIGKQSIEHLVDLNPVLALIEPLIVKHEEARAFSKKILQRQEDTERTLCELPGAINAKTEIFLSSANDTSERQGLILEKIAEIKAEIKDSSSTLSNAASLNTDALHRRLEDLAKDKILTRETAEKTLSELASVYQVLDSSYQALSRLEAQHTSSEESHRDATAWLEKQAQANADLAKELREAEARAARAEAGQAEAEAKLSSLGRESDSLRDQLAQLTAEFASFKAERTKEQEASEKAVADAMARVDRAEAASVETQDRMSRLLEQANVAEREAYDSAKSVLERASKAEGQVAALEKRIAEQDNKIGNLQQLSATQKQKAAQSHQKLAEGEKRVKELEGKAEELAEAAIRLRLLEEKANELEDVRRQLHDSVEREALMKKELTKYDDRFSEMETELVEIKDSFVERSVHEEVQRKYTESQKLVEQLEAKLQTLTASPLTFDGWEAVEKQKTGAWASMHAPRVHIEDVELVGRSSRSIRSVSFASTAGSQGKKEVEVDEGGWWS

Legend:
Assay in all cases: two-hybrid
[1] = molecular target: full length Pab1 (poly(A)-binding protein) (Ustilago maydis) (UniProt Q4P8R9)
Rrm4 (Ustilago maydis) = molecular target: Rrm4 (Ustilago maydis)
Upa1 (Ustilago maydis) = molecular target: Upa1 (Ustilago maydis)
[2] = molecular target: coiled coil region of Upa2 (amino acids 1712-2121) (Ustilago maydis)

Row | Substance | binding [1] | binding (Rrm4 (Ustilago maydis)) | binding (Upa1 (Ustilago maydis)) | binding [2]
1 | C-terminal part of Upa2 (aa 1217-2121) (from UniProt A0A0D1DRJ3 1217-2121) (domain or fragment) | no binding | – | – | –
2 | Full-length Upa2 (Ustilago PAM2 protein 2) (from UniProt A0A0D1DRJ3 1-2121) | binds weakly | no binding | no binding | –
3 | PAM2-containing N-terminal part of Upa2 (aa 1-1216) (from UniProt A0A0D1DRJ3 1-1216) (domain or fragment) | binds | – | – | –
4 | coiled coil region of Upa2 (amino acids 1712-2121) (from UniProt A0A0D1DRJ3 1712-2121) (domain or fragment) | – | – | – | binds
